Results are given in words; binding and its absence hold for the method and conditions named. Some results given as binding are weak or reduced against the parent protein; the word gives no strength.
Molecular target: peptide 9 (amino acids 81-95 of CSP) (Plasmodium falciparum)
Assay: indirect ELISA, 15-mer peptide mapping

B1: monoclonal antibody (mAb) 5D5 (antibody, V domains shown)
VH: QVHLQQSGGEVARPGASVKLSCKASGYTFTGYGLSWVKQRTGQGLEWIGEIYPRSGNTYYNEKFKGKATLTADKSSSTAYMELRSLTSEDSAVYFCARSWGNSSFVYWGQGTLVTVSA
VL: SIVMTQTPKFLLVSAGDRVTITCKASQSVTNDVTWYQQKPGQSPKLLIYYASNRYTGVPDRFTGSGYGTDFTFTISTVQAEDLAVYFCQQDYSSPFTFGSGTKLEIKR
B1 was tested, and the binding was “binds”.

Reference: patent US20160176955A1
